Entries after “also recorded” stand apart in the source; their conditions may differ.
Assay: Plasma lipids and lipoprotein distribution
Type: in vivo, mouse

Q: What does the source list for `NCc1ccccc1O` [2-HOBA, 2-hydroxybenzylamine]?
A: plasma total cholesterol and triglyceride levels (female Ldlr−/− mice, western diet 16 weeks, vs vehicle or 4-HOBA): absence of changes; also recorded: not significantly different; plasma total cholesterol levels (male Ldlr−/− mice, 1 g/L, vs water): did not affect; also recorded: does not affect
